{
  "source": "the supplement of paper PMC8728848",
  "experiment_in_all_cases": "glycan array binding signal (z-score within array); higher = stronger binding",
  "details_in_all_cases": "glycan notation: IUPAC condensed, linker removed",
  "key": {"[1]": {"target": "Fuc(a1-2)[Gal(a1-3)]Gal(b1-4)GlcNAc(b1-2)Man(a1-3)[Fuc(a1-2)[Gal(a1-3)]Gal(b1-4)GlcNAc(b1-2)Man(a1-6)]Man(b1-4)GlcNAc(b1-4)[Fuc(a1-6)]GlcNAc", "method_in_brief": "(§1)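 Glycan array binding is given as a within-array Z-score, which can be read as non-binding when negative. The arrays, 3228 of them, came from the Consortium for Functional Glycomics database and were retained only where the protein sequence was available. Z-scores were averaged across arrays of the same protein sequence at different concentrations or buffers and across linkers.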"}, "[2]": {"target": "Fuc(a1-2)[Gal(a1-3)]Gal(b1-4)GlcNAc(b1-3)GalNAc", "method_in_brief": "as §1"}, "[3]": {"target": "Fuc(a1-2)[Gal(a1-3)]Gal(b1-4)GlcNAc(b1-3)[Fuc(a1-2)[Gal(a1-3)]Gal(b1-4)GlcNAc(b1-6)]GalNAc", "method_in_brief": "as §1"}, "[4]": {"target": "Fuc(a1-2)[Gal(a1-3)]Gal(b1-4)GlcNAc(b1-6)GalNAc", "method_in_brief": "as §1"}, "[5]": {"target": "Fuc(a1-2)[Gal(a1-3)]Gal(b1-4)[Fuc(a1-3)]Glc", "method_in_brief": "as §1"}, "[6]": {"target": "Fuc(a1-2)[Gal(a1-3)]Gal(b1-4)[Fuc(a1-3)]GlcNAc", "method_in_brief": "as §1"}, "[7]": {"target": "Fuc(a1-2)[Gal(a1-3)]Gal(b1-4)[Fuc(a1-3)]GlcNAc(b1-3)GalNAc", "method_in_brief": "as §1"}, "[8]": {"target": "Fuc(a1-2)[Gal(a1-4)]Gal(b1-4)GlcNAc", "method_in_brief": "as §1"}, "[9]": {"target": "Fuc(a1-2)[GalNAc(a1-3)]Gal", "method_in_brief": "as §1"}, "[10]": {"target": "Fuc(a1-2)[GalNAc(a1-3)]Gal(b1-3)GalNAc(a1-3)[Fuc(a1-2)]Gal(b1-4)GlcNAc", "method_in_brief": "as §1"}, "[11]": {"target": "Fuc(a1-2)[GalNAc(a1-3)]Gal(b1-3)GalNAc(b1-3)Gal(a1-4)Gal(b1-4)Glc", "method_in_brief": "as §1"}, "[12]": {"target": "Fuc(a1-2)[GalNAc(a1-3)]Gal(b1-3)GlcNAc", "method_in_brief": "as §1"}, "[13]": {"target": "Fuc(a1-2)[GalNAc(a1-3)]Gal(b1-3)GlcNAc(b1-2)Man(a1-3)[Fuc(a1-2)[GalNAc(a1-3)]Gal(b1-3)GlcNAc(b1-2)Man(a1-6)]Man(b1-4)GlcNAc(b1-4)GlcNAc", "method_in_brief": "as §1"}, "[14]": {"target": "Fuc(a1-2)[GalNAc(a1-3)]Gal(b1-3)GlcNAc(b1-2)Man(a1-3)[Fuc(a1-2)[GalNAc(a1-3)]Gal(b1-3)GlcNAc(b1-2)Man(a1-6)]Man(b1-4)GlcNAc(b1-4)[Fuc(a1-6)]GlcNAc", "method_in_brief": "as §1"}, "[15]": {"target": "Fuc(a1-2)[GalNAc(a1-3)]Gal(b1-3)GlcNAc(b1-3)GalNAc", "method_in_brief": "as §1"}, "[16]": {"target": "Fuc(a1-2)[GalNAc(a1-3)]Gal(b1-3)GlcNAc(b1-6)GalNAc", "method_in_brief": "as §1"}, "[17]": {"target": "Fuc(a1-2)[GalNAc(a1-3)]Gal(b1-4)Glc", "method_in_brief": "as §1"}, "[18]": {"target": "Fuc(a1-2)[GalNAc(a1-3)]Gal(b1-4)GlcNAc", "method_in_brief": "as §1"}, "[19]": {"target": "Fuc(a1-2)[GalNAc(a1-3)]Gal(b1-4)GlcNAc(b1-2)Man", "method_in_brief": "as §1"}, "[20]": {"target": "Fuc(a1-2)[GalNAc(a1-3)]Gal(b1-4)GlcNAc(b1-2)Man(a1-3)[Fuc(a1-2)[GalNAc(a1-3)]Gal(b1-4)GlcNAc(b1-2)Man(a1-6)]Man(b1-4)GlcNAc(b1-4)GlcNAc", "method_in_brief": "as §1"}, "[21]": {"target": "Fuc(a1-2)[GalNAc(a1-3)]Gal(b1-4)GlcNAc(b1-2)Man(a1-3)[Fuc(a1-2)[GalNAc(a1-3)]Gal(b1-4)GlcNAc(b1-2)Man(a1-6)]Man(b1-4)GlcNAc(b1-4)[Fuc(a1-6)]GlcNAc", "method_in_brief": "as §1"}, "[22]": {"target": "Fuc(a1-2)[GalNAc(a1-3)]Gal(b1-4)GlcNAc(b1-3)Gal(b1-4)GlcNAc", "method_in_brief": "as §1"}, "[23]": {"target": "Fuc(a1-2)[GalNAc(a1-3)]Gal(b1-4)GlcNAc(b1-3)Gal(b1-4)GlcNAc(b1-3)Gal(b1-4)GlcNAc", "method_in_brief": "as §1"}, "[24]": {"target": "Fuc(a1-2)[GalNAc(a1-3)]Gal(b1-4)GlcNAc(b1-3)GalNAc", "method_in_brief": "as §1"}, "[25]": {"target": "Fuc(a1-2)[GalNAc(a1-3)]Gal(b1-4)GlcNAc(b1-3)[Fuc(a1-2)[GalNAc(a1-3)]Gal(b1-4)GlcNAc(b1-6)]GalNAc", "method_in_brief": "as §1"}, "[26]": {"target": "Fuc(a1-2)[GalNAc(a1-3)]Gal(b1-4)GlcNAc(b1-6)GalNAc", "method_in_brief": "as §1"}, "[27]": {"target": "Fuc(a1-2)[GalNAc(a1-3)]Gal(b1-4)[Fuc(a1-3)]GlcNAc", "method_in_brief": "as §1"}, "[28]": {"target": "Fuc(a1-2)[GalNAc(a1-3)]Gal(b1-4)[Fuc(a1-3)]GlcNAc(b1-3)GalNAc", "method_in_brief": "as §1"}, "[29]": {"target": "Fuc(a1-2)[GalNAc(a1-4)]Gal(b1-4)GlcNAc", "method_in_brief": "as §1"}, "[30]": {"target": "Fuc(a1-2)[GalNAc(b1-3)]Gal", "method_in_brief": "as §1"}},
  "note": "The other results are listed elsewhere or left out.",
  "data": [
    {"binder": "his-Lectin-24A (Drosophila melanogaster) (protein) MFRLSVLVLNLLLVSHEFSAGTAKIEIQPLPALCNGYCFPTLKPVMEYVAIHQDKWNTCTEILANEARKDQIQLNIQLDALKADVSNIKASQLSKDEKLDRMEREQFAMHESLETINRYLTVKLDRTKLQLEAIKNTMDYMKAQMDGYFSAINGVQCLQPGFEKIGDRYFYIEEDVELNWLDAQAKCRRMGGHLASIKTKQEFDAIVEKLDDSKSYFLGVNENTKTGDFVSAASGKSCLYHEWGPGEPHHNNDQERCVSILRKLMHVGNCTYEKRFICQYGI", "values": [
      {"measurement": "glycan array binding signal (z-score)", "setting": "[1]", "value": -1.36},
      {"measurement": "glycan array binding signal (z-score)", "setting": "[2]", "value": 0.642},
      {"measurement": "glycan array binding signal (z-score)", "setting": "[3]", "value": 0.557},
      {"measurement": "glycan array binding signal (z-score)", "setting": "[4]", "value": 0.328},
      {"measurement": "glycan array binding signal (z-score)", "setting": "[5]", "value": -1.49},
      {"measurement": "glycan array binding signal (z-score)", "setting": "[6]", "value": -0.544},
      {"measurement": "glycan array binding signal (z-score)", "setting": "[7]", "value": -0.502},
      {"measurement": "glycan array binding signal (z-score)", "setting": "[8]", "value": 0.495},
      {"measurement": "glycan array binding signal (z-score)", "setting": "[9]", "value": 0.077},
      {"measurement": "glycan array binding signal (z-score)", "setting": "[10]", "value": -0.054},
      {"measurement": "glycan array binding signal (z-score)", "setting": "[11]", "value": -0.805},
      {"measurement": "glycan array binding signal (z-score)", "setting": "[12]", "value": 1.9},
      {"measurement": "glycan array binding signal (z-score)", "setting": "[13]", "value": -1.52},
      {"measurement": "glycan array binding signal (z-score)", "setting": "[14]", "value": -0.522},
      {"measurement": "glycan array binding signal (z-score)", "setting": "[15]", "value": -0.188},
      {"measurement": "glycan array binding signal (z-score)", "setting": "[16]", "value": -0.776},
      {"measurement": "glycan array binding signal (z-score)", "setting": "[17]", "value": 0.955},
      {"measurement": "glycan array binding signal (z-score)", "setting": "[18]", "value": -0.611},
      {"measurement": "glycan array binding signal (z-score)", "setting": "[19]", "value": -1.35},
      {"measurement": "glycan array binding signal (z-score)", "setting": "[20]", "value": 0.814},
      {"measurement": "glycan array binding signal (z-score)", "setting": "[21]", "value": -0.732},
      {"measurement": "glycan array binding signal (z-score)", "setting": "[22]", "value": -0.305},
      {"measurement": "glycan array binding signal (z-score)", "setting": "[23]", "value": 1.05},
      {"measurement": "glycan array binding signal (z-score)", "setting": "[24]", "value": -0.337},
      {"measurement": "glycan array binding signal (z-score)", "setting": "[25]", "value": 0.606},
      {"measurement": "glycan array binding signal (z-score)", "setting": "[26]", "value": -0.788},
      {"measurement": "glycan array binding signal (z-score)", "setting": "[27]", "value": 0.121},
      {"measurement": "glycan array binding signal (z-score)", "setting": "[28]", "value": 0.459},
      {"measurement": "glycan array binding signal (z-score)", "setting": "[29]", "value": 0.721},
      {"measurement": "glycan array binding signal (z-score)", "setting": "[30]", "value": 0.127}
    ]}
  ]
}
